Source: PMC4765788, “Role of a chalcone isomerase-like protein in flavonoid biosynthesis in Arabidopsis thaliana” (Journal of Experimental Botany, 2015)
Results are given in words; binding and its absence hold for the method and conditions named. Some binding calls cover weakened binding; strength is not graded here. Where a sequence is shown, tags or fusion partners need not be part of it. One block for each binder: values may come before it.

Key:
[1] = target: T1, BD-TT2 (Arabidopsis thaliana) (UniProt Q9FJA2); test: two-hybrid; yeast co-transformed with BD and AD fusions; growth on SD-Trp-Leu-His; also tested on SD-Trp-Leu-His-Ade
T1 sequence: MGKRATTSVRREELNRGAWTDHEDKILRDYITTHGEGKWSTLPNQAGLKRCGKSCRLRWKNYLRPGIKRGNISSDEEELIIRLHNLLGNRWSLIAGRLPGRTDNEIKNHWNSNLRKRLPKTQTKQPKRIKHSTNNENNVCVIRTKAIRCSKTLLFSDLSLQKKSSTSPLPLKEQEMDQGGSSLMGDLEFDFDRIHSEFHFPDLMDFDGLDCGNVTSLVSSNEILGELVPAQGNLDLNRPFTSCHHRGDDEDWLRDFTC

[2] = target: T2, BD-CHIL (Arabidopsis thaliana) (UniProt Q8VZW3); test: as above
T2 sequence: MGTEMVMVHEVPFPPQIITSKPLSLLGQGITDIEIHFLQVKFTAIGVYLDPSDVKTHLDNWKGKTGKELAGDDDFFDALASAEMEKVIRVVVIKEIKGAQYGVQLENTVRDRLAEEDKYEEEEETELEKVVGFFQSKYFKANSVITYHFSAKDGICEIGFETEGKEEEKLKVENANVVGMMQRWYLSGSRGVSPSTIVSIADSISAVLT

binding [1]: binds
B1: AD-TT8 (protein, UniProt Q9FT81 1-518)
chain: MDESSIIPAEKVAGAEKKELQGLLKTAVQSVDWTYSVFWQFCPQQRVLVWGNGYYNGAIKTRKTTQPAEVTAEEAALERSQQLRELYETLLAGESTSEARACTALSPEDLTETEWFYLMCVSFSFPPPSGMPGKAYARRKHVWLSGANEVDSKTFSRAILAKSAKIQTVVCIPMLDGVVELGTTKKVREDVEFVELTKSFFYDHCKTNPKPALSEHSTYEVHEEAEDEEEVEEEMTMSEEMRLGSPDDEDVSNQNLHSDLHIESTHTLDTHMDMMNLMEEGGNYSQTVTTLLMSHPTSLLSDSVSTSSYIQSSFATWRVENGKEHQQVKTAPSSQWVLKQMIFRVPFLHDNTKDKRLPREDLSHVVAERRRREKLNEKFITLRSMVPFVTKMDKVSILGDTIAYVNHLRKRVHELENTHHEQQHKRTRTCKRKTSEEVEVSIIENDVLLEMRCEYRDGLLLDILQVLHELGIETTAVHTSVNDHDFEAEIRAKVRGKKASIAEVKRAIHQVIIHDTNL

binding [2]: binds
B2: recombinant TT5 protein (chalcone isomerase), His-tagged (enzyme, Arabidopsis thaliana, UniProt P41088 1-246, looked up)
chain: MSSSNACASPSPFPAVTKLHVDSVTFVPSVKSPASSNPLFLGGAGVRGLDIQGKFVIFTVIGVYLEGNAVPSLSVKWKGKTTEELTESIPFFREIVTGAFEKFIKVTMKLPLTGQQYSEKVTENCVAIWKQLGLYTDCEAKAVEKFLEIFKEETFPPGSSILFALSPTGSLTVAFSKDDSIPETGIAVIENKLLAEAVLESIIGKNGVSPGTRLSVAERLSQLMMKNKDEKEVSDHSVEEKLAKEN
notes: TT5, chalcone isomerase, Arabidopsis thaliana, At3g55120; ORF cloned into pQE-30; pQE-30 usually adds an N-terminal His6 tag (surmised); also called CHI
